These are yes or no findings as the source states them, for the method shown. Binding seen in cells or lysates may run through a third protein. Some entries that bind do so weakly or less than the wild type.

Protein sequences, listed by entry. Tags and fused reporters are not part of them.
UniProt P24860: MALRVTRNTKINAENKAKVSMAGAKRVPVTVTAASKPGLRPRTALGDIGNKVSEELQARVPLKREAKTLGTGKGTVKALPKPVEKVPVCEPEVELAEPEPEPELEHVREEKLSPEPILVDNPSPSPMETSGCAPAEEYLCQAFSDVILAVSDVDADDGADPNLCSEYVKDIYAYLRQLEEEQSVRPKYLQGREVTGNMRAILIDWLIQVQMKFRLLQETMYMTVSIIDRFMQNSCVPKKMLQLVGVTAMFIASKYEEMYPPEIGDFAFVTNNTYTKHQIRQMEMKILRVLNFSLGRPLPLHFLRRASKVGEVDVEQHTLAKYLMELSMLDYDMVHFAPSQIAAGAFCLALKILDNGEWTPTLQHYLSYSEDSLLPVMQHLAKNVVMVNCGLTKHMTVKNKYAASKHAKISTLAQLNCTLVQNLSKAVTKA
UniProt P11440: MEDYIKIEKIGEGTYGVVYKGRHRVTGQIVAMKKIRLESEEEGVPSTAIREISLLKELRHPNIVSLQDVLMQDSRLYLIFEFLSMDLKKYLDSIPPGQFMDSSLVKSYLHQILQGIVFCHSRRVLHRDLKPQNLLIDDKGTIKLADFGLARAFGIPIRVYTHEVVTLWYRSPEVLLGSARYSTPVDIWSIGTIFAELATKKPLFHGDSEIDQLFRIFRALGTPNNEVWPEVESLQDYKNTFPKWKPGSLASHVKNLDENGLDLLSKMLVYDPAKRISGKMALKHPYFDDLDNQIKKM

The assay deals with cyclin B1 (mouse (endogenous in embryonic liver)) (UniProt P24860). Briefly: co-IP; endogenous proteins in total lysates (100-200 ug) of mouse embryonic liver tissue (E11.5 and E15.5) harvested 0 and 16 h after IR of the pregnant mice; 1-2 ul primary antibody, protein G sepharose, 3 to 4 washes, Western blot.

Consider “Cdk2 (from UniProt P97377 1-346) (enzyme)”, for which the binding result is “binds”.

Turning to “Cdk1 (from UniProt P11440 1-297) (enzyme)”, the binding result is “binds”.

Source of the values: paper PMC4031160.
